Data published in publication PMC10800354.
Where two headings read alike, the source gives them in different places. No constants are given. Whether binding was seen depends on the method and setting. In cells and extracts the contact can be indirect. A yes stands for co-enrichment or nearness to the bait. Other partners may have been found.

The chains behind the UniProt entries cited, without tags or fusion partners.
UniProt Q9HCJ5: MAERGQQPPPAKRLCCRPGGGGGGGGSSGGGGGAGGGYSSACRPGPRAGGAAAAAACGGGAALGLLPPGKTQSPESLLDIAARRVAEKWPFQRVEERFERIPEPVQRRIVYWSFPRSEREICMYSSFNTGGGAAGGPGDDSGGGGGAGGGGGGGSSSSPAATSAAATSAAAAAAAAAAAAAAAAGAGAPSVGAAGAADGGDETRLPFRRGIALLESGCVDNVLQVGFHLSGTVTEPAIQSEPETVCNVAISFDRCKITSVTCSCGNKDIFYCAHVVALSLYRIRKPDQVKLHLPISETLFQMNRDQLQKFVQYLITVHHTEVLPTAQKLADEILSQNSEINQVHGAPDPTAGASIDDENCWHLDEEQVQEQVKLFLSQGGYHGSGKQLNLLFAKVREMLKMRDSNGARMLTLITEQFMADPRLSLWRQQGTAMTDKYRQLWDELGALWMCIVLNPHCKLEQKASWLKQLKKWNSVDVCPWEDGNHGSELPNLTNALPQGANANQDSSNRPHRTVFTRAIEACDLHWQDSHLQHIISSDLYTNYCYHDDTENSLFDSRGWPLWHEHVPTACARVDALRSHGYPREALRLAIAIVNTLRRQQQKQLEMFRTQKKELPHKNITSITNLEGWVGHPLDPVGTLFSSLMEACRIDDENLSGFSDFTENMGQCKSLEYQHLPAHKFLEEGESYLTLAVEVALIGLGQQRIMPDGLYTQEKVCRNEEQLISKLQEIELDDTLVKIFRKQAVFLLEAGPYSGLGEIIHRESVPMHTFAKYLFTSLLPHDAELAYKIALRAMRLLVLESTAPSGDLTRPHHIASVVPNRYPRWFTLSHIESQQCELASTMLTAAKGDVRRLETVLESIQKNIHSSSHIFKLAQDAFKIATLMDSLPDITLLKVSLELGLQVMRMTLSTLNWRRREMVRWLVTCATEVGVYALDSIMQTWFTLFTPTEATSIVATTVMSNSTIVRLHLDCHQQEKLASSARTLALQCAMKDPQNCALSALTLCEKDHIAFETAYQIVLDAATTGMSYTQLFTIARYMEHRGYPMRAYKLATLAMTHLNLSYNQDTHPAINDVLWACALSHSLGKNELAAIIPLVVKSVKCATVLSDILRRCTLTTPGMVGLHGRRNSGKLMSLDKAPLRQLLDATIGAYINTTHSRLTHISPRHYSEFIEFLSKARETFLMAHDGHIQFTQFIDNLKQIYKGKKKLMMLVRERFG

T1: N-acetyltransferase 10 (NAT10), endogenous (human (endogenous in SCC-15)) (UniProt Q9H0A0)
T1 sequence: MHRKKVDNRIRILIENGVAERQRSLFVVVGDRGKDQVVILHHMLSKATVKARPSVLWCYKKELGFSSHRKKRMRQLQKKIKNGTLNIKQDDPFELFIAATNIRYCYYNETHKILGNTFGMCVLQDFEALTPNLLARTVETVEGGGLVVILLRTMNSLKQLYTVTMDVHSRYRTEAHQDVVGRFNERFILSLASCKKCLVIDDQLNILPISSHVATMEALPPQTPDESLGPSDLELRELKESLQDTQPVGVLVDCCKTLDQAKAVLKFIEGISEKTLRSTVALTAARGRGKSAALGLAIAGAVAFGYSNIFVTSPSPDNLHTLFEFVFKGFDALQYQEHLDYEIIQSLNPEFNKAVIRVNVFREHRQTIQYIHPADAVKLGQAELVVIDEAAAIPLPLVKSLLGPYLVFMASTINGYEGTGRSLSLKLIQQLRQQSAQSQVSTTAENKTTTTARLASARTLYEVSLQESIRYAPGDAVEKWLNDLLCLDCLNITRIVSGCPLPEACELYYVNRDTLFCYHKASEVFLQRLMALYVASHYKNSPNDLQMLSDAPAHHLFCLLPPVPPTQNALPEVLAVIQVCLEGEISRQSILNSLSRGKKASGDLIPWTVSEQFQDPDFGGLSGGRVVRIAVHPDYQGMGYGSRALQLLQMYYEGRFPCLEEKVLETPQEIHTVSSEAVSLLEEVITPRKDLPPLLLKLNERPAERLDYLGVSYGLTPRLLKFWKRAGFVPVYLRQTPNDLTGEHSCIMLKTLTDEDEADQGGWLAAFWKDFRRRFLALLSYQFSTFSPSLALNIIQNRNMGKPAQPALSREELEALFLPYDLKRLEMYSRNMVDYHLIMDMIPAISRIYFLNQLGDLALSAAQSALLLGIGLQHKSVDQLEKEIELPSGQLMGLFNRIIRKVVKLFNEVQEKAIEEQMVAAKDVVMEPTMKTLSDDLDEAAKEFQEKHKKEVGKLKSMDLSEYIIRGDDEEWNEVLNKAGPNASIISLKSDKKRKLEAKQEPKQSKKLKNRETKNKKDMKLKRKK


How the values were obtained:
[1] = biological target: T1, N-acetyltransferase 10 (NAT10), endogenous (human (endogenous in SCC-15)); test: affinity purification with mass spectrometry; co-IP of endogenous NAT10 from SCC-15 cells with anti-NAT10 antibody, gel slice digested, LC-MS/MS; proteins found in the IgG and NAT10 KD control groups subtracted
[2] = biological target: T1, N-acetyltransferase 10 (NAT10), endogenous (human (endogenous in SCC-15)); test: as above; remark: listed apart in the source

Row | Molecule | binding [1] | binding [2]
1 | zinc finger SWIM domain-containing protein 6 (ZSWIM6), endogenous (from UniProt Q9HCJ5 1-1215) | binds | –
2 | RNA-binding protein with serine-rich domain 1 (RNPS1), endogenous (protein, UniProt Q15287 1-305) MDLSGVKKKSLLGVKENNKKSSTRAPSPTKRKDRSDEKSKDRSKDKGATKESSEKDRGRDKTRKRRSASSGSSSTRSRSSSTSSSGSSTSTGSSSGSSSSSASSRSGSSSTSRSSSSSSSSGSPSPSRRRHDNRRRSRSKSKPPKRDEKERKRRSPSPKPTKVHIGRLTRNVTKDHIMEIFSTYGKIKMIDMPVERMHPHLSKGYAYVEFENPDEAEKALKHMDGGQIDGQEITATAVLAPWPRPPPRRFSPPRRMLPPPPMWRRSPPRMRRRSRSPRRRSPVRRRSRSPGRRRHRSRSSSNSSR | – | binds
